Experimental data as given in US20060147922A1, “Novel diagnostic and therapeutic methods and reagents therefor” (priority 2002, published 2006).
Residue numbers refer to the chain shown, from its start. No constants are given. Whether binding was seen depends on the method and setting. Binding seen in cells or lysates may run through a third protein. Some results given as binding are weak or reduced against the parent protein; the word gives no strength. For some of these results: Tags and fused reporters may be left off the sequences shown.

Protein sequences, listed by entry. Tags and fused reporters are not part of them. Lines headed by an entry give the natural chain unless they say otherwise; changes in a name come on top.
UniProt P52294: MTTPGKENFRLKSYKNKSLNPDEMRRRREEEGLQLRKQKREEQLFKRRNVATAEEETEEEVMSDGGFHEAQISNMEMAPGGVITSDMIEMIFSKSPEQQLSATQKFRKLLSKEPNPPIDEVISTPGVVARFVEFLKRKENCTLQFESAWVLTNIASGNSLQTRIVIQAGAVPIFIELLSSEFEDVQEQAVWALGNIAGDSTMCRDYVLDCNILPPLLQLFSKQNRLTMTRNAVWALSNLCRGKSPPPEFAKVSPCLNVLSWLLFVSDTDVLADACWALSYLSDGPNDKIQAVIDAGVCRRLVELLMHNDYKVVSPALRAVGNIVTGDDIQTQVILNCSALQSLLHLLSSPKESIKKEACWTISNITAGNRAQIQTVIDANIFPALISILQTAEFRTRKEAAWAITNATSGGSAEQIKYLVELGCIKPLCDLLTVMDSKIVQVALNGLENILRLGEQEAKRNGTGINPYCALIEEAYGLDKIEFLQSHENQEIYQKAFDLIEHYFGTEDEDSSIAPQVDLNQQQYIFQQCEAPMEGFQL
UniProt P06401: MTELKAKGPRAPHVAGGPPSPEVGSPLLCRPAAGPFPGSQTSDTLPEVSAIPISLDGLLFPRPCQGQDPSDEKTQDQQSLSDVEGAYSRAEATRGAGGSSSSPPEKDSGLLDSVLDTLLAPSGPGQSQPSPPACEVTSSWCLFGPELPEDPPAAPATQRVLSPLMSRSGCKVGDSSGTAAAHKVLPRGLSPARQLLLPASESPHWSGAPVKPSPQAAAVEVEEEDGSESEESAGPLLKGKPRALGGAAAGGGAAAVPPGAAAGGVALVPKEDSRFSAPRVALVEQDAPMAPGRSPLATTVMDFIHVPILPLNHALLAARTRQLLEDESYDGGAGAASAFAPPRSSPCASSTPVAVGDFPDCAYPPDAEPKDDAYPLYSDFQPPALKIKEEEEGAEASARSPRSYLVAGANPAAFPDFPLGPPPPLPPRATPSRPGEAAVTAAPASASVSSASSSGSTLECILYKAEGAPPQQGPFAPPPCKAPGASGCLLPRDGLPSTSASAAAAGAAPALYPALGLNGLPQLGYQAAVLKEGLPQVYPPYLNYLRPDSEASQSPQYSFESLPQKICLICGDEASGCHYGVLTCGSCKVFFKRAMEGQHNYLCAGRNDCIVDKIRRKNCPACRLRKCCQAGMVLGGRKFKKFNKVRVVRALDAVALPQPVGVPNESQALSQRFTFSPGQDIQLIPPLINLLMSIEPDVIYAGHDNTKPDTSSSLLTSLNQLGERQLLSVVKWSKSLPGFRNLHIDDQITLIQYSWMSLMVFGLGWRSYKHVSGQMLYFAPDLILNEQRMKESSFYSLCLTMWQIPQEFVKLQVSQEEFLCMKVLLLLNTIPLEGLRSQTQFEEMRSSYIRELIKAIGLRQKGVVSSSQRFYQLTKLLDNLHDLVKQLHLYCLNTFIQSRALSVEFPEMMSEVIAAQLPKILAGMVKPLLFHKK
UniProt O96017: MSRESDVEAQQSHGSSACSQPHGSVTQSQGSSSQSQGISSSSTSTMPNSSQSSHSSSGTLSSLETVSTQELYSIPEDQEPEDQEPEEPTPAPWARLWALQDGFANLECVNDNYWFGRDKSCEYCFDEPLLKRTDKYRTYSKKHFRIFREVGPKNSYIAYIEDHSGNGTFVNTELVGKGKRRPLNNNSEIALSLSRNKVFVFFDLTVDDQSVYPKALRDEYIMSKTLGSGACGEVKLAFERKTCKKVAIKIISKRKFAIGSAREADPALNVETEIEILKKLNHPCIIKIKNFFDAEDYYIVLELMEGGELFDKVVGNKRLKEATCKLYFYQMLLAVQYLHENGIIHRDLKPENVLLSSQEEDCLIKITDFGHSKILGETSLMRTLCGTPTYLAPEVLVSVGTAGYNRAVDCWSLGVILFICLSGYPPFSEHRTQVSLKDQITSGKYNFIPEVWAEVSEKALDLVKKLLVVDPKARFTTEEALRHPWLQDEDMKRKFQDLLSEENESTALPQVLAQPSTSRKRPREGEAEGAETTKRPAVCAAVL

What was measured:
[1] = biological target: GST fused to amino acids 263-538 of human importin α5 (NPI-1) (human) (UniProt P52294); test: GST pull-down of IVT 35S-EDD fragments
[2] = biological target: GST-PR(CDE) fusion protein (human PR B aa 456-933) (human) (UniProt P06401); test: GST-PR(CDE) pull-down of IVT 35S-EDD fragments
[3] = biological target: GST fused to amino acids 263-538 of human importin α5 (NPI-1) (human) (UniProt P52294); test: GST pull-down of IVT N-terminal EDD derivatives
[4] = biological target: GST-PR(CDE) fusion protein (human PR B aa 456-933) (human) (UniProt P06401); test: GST-PR(CDE) pull-down of IVT N-terminal EDD derivatives
[5] = biological target: T1, GST-CIB fusion protein (full-length CIB in pGEX2T) (human) (UniProt Q99828); test: GST-CIB pull-down of IVT 35S-EDD fragments
T1 sequence: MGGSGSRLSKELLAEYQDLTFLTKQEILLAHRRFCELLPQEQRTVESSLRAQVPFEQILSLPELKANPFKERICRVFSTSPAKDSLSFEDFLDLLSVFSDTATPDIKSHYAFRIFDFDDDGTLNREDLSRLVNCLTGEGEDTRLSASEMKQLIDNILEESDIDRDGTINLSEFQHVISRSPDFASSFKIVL

[6] = biological target: GSTchk2-N (GST fused to chk2 aa 1-225) (human) (UniProt O96017); test: GSTchk2-N pull-down of IVT 35S-EDD deletion mutants

B1: EDDF1, N-terminal domain of EDD (aa 1-889) (protein)
chain: MTSIHFVVHPLPGTEDQLNDRLREVSEKLNKYNLNSHPPLNVLEQATIKQCVVGPNHAAFLLEDGRVCRIGFSVQPDRLELGKPDNNDGSKLNSNSGAGRTSRPGRTSDSPWFLSGSETLGRLAGNTLGSRWSSGVGGSGGGSSGRSSAGARDSRRQTRVIRTGRDRGSGLLGSQPQPVIPASVIPEELISQAQVVLQGKSRSVIIRELQRTNLDVNLAVNNLLSRDDEDGDDGDDTASESYLPGEDLMSLLDADIHSAHPSVIIDADAMFSEDISYFGYPSFRRSSLSRLGSSRVLLLPLERDSELLRERESVLRLRERRWLDGASFDNERGSTSKEGEPNLDKKNTPVQSPVSLGEDLQWWPDKDGTKFICIGALYSELLAVSSKGELYQWKWSESEPYRNAQNPSLHHPRATFLGLTNEKIVLLSANSIRATVATENNKVATWVDETLSSVASKLEHTAQTYSELQGERIVSLHCCALYTCAQLENSLYWWGVVPFSQRKKMLEKARAKNKKPKSSAGISSMPNITVGTQVCLRNNPLYHAGAVAFSISAGIPKVGVLMESVWNMNDSCRFQLRSPESLKNMEKASKTTEAKPESKQEPVKTEMGPPPSPASTCSDASSIASSASMPYKRRRSTPAPKEEEKVNEEQWSLREVVFVEDVKNVPVGKVLKVDGAYVAVKFPGTSSNTNCQNSSGPDADPSSLLQDCRLLRIDELQVVKTGGTPKVPDCFQRTPKKLCIPEKTEILAVNVDSKGVHAVLKTGNWVRYCIFDLATGKAEQENNFPTSSIAFLGQNERNVAIFTAGQESPIILRDGNGTIYPMAKDCMGGIRDPDWLDLPPISSLGMGVHSLINLPANSTIKKKAAVIIMAVEKQTLMQHILRCDYEACR
binding [1]: binds
binding [2]: binds

B2: EDDF1a (EDD aa 1-577) (protein)
chain: MTSIHFVVHPLPGTEDQLNDRLREVSEKLNKYNLNSHPPLNVLEQATIKQCVVGPNHAAFLLEDGRVCRIGFSVQPDRLELGKPDNNDGSKLNSNSGAGRTSRPGRTSDSPWFLSGSETLGRLAGNTLGSRWSSGVGGSGGGSSGRSSAGARDSRRQTRVIRTGRDRGSGLLGSQPQPVIPASVIPEELISQAQVVLQGKSRSVIIRELQRTNLDVNLAVNNLLSRDDEDGDDGDDTASESYLPGEDLMSLLDADIHSAHPSVIIDADAMFSEDISYFGYPSFRRSSLSRLGSSRVLLLPLERDSELLRERESVLRLRERRWLDGASFDNERGSTSKEGEPNLDKKNTPVQSPVSLGEDLQWWPDKDGTKFICIGALYSELLAVSSKGELYQWKWSESEPYRNAQNPSLHHPRATFLGLTNEKIVLLSANSIRATVATENNKVATWVDETLSSVASKLEHTAQTYSELQGERIVSLHCCALYTCAQLENSLYWWGVVPFSQRKKMLEKARAKNKKPKSSAGISSMPNITVGTQVCLRNNPLYHAGAVAFSISAGIPKVGVLMESVWNMNDSCRFQLR
binding [3]: binds

B3: EDDF1b (EDD aa 578-889) (protein)
chain: SPESLKNMEKASKTTEAKPESKQEPVKTEMGPPPSPASTCSDASSIASSASMPYKRRRSTPAPKEEEKVNEEQWSLREVVFVEDVKNVPVGKVLKVDGAYVAVKFPGTSSNTNCQNSSGPDADPSSLLQDCRLLRIDELQVVKTGGTPKVPDCFQRTPKKLCIPEKTEILAVNVDSKGVHAVLKTGNWVRYCIFDLATGKAEQENNFPTSSIAFLGQNERNVAIFTAGQESPIILRDGNGTIYPMAKDCMGGIRDPDWLDLPPISSLGMGVHSLINLPANSTIKKKAAVIIMAVEKQTLMQHILRCDYEACR
binding [3]: binds
binding [4]: binds

B4: EDDF1d (EDD aa 420-889) (protein)
chain: TNEKIVLLSANSIRATVATENNKVATWVDETLSSVASKLEHTAQTYSELQGERIVSLHCCALYTCAQLENSLYWWGVVPFSQRKKMLEKARAKNKKPKSSAGISSMPNITVGTQVCLRNNPLYHAGAVAFSISAGIPKVGVLMESVWNMNDSCRFQLRSPESLKNMEKASKTTEAKPESKQEPVKTEMGPPPSPASTCSDASSIASSASMPYKRRRSTPAPKEEEKVNEEQWSLREVVFVEDVKNVPVGKVLKVDGAYVAVKFPGTSSNTNCQNSSGPDADPSSLLQDCRLLRIDELQVVKTGGTPKVPDCFQRTPKKLCIPEKTEILAVNVDSKGVHAVLKTGNWVRYCIFDLATGKAEQENNFPTSSIAFLGQNERNVAIFTAGQESPIILRDGNGTIYPMAKDCMGGIRDPDWLDLPPISSLGMGVHSLINLPANSTIKKKAAVIIMAVEKQTLMQHILRCDYEACR
binding [3]: binds
binding [4]: binds

B5: EDDF3, carboxy domain of EDD (aa 1877-2799) (protein)
chain: NSARRERMTAREEASLRTLEGRRRATLLSARQGMMSARGDFLNYALSLMRSHNDEHSDVLPVLDVCSLKHVAYVFQALIYWIKAMNQQTTLDTPQLERKRTRELLELGIDNEDSEHENDDDTNQSATLNDKDDDSLPAETGQNHPFFRRSDSMTFLGCIPPNPFEVPLAEAIPLADQPHLLQPNARKEDLFGRPSQGLYSSSASSGKCLMEVTVDRNCLEVLPTKMSYAANLKNVMNMQNRQKKEGEEQPVLPEETESSKPGPSAHDLAAQLKSSLLAEIGLTESEGPPLTSFRPQCSFMGMVISHDMLLGRWRLSLELFGRVFMEDVGAEPGSILTELGGFEVKESKFRREMEKLRNQQSRDLSLEVDRDRDLLIQQTMRQLNNHFGRRCATTPMAVHRVKVTFKDEPGEGSGVARSFYTAIAQAFLSNEKLPNLECIQNANKGTHTSLMQRLRNRGERDREREREREMRRSSGLRAGSRRDRDRDFRRQLSIDTRPFRPASEGNPSDDPEPLPAHRQALGERLYPRVQAMQPAFASKITGMLLELSPAQLLLLLASEDSLRARVDEAMELIIAHGRENGADSILDLGLVDSSEKVQQENRKRHGSSRSVVDMDLDDTDDGDDNAPLFYQPGKRGFYTPRPGKNTEARLNCFRNIGRILGLCLLQNELCPITLNRHVIKVLLGRKVNWHDFAFFDPVMYESLRQLILASQSSDADAVFSAMDLAFAIDLCKEEGGGQVELIPNGVNIPVTPQNVYEYVRKYAEHRMLVVAEQPLHAMRKGLLDVLPKNSLEDLTAEDFRLLVNGCGEVNVQMLISFTSFNDESGENAEKLLQFKRWFWSIVEKMSMTERQDLVYFWTSSPSLPASEEGFQPMPSITIRPPDDQHLPTANTCISRLYVPLYSSKQILKQKLLLAIKTKNFGFV
binding [5]: binds

B6: EDDF3M, carboxy domain of EDD (aa 1877-2799) with Cys2768 to Ala (protein)
chain: B5 chain with C892A
binding [5]: binds

B7: EDDF7 (EDDF5 without the RING-like domain) (protein)
chain: VKELQNKYTPGRREEAIAVTMRFLRSVARVFVILSVEMASSKKKNNFIPQPIGKCKRVFQALLPYAVEELCNVAESLIVPVRMGIARPTAPFTLASTSIDAMQGSEELFSVEPLPPRPSSDQSSSSSQSQSSYIIRNPQQRRISQSQPVRGRDEEQDDIVSADVEEVEVVEGVAGEEDHHDEQEEHGEENAEAEGQHDEHDEDGSDMELDLLAAAETESDSESNHSNQDNASGRRSVVTAATAGSEAGASSVPAFFSEDDSQSNDSSDSDSSSSQSDDIEQETFMLDEPLERTTNSSHANGAAQAPRSMQWAVRNTQHQRAASTAPSSTSTPAASSAGLIYIDPSNLRRSGTISTSAAAAAAALEASNASSYLTSASSLARAYSIVIRQISDLMGLIPKYNHLVYSQIPAAVKLTYQDAVNLQNYVEEKLIPTWNWMVSIMDSTEAQLRYGSALASAGDPGHPNHPLHASQNSARRERMTAREEASLRTLEGRRRATLLSARQGMMSARGDFLNYALSLMRSHNDEHSDVLPVLDVCSLKHVAYVFQALIYWIKAMNQQTTLDTPQLERKRTRELLELGIDNEDSEHENDDDTNQSATLNDKDDDSLPAETGQNHPFFRRSDSMTFLGCIPPNPFEVPLAEAIPLADQPHLLQPNARKEDLFGRPSQGLYSSSASSGKCLMEVTVDRNCLEVLPTKMSYAANLKNVMNMQNRQKKEGEEQPVLPEETESSKPGPSAHDLAAQLKSSLLAEIGLTESEGPPLTSFRPQCSFMGMVISHDMLLGRWRLSLELFGRVFMEDVGAEPGSILTELGGFEVKESKFRREMEKLRNQQSRDLSLEVDRDRDLLIQQTMRQLNNHFGRRCATTPMAVHRVKVTFKDEPGEGSGVARSFYTAIAQAFLSNEKLPNLECIQNANKGTHTSLMQRLRNRGERDREREREREMRRSSGLRAGSRRDRDRDFRRQLSIDTRPFRPASEGNPSDDPEPLPAHRQALGERLYPRVQAMQPAFASKITGMLLELSPAQLLLLLASEDSLRARVDEAMELIIAHGRENGADSILDLGLVDSSEKVQQENRKRHGSSRSVVDMDLDDTDDGDDNAPLFYQPGKRGFYTPRPGKNTEARLNCFRNIGRILGLCLLQNELCPITLNRHVIKVLLGRKVNWHDFAFFDPVMYESLRQLILASQSSDADAVFSAMDLAFAIDLCKEEGGGQVELIPNGVNIPVTPQNVYEYVRKYAEHRMLVVAEQPLHAMRKGLLDVLPKNSLEDLTAEDFRLLVNGCGEVNVQMLISFTSFNDESGENAEKLLQFKRWFWSIVEKMSMTERQDLVYFWTSSPSLPASEEGFQPMPSITIRPPDDQHLPTANTCISRLYVPLYSSKQILKQKLLLAIKTKNFGFV
binding [6]: binds
